Some results were stated once for a whole list of compounds, not compound by compound. For at least one compound, name, drawing or mass did not settle the structure.
Legend:
[1] = tested on: brown rice planthopper; assay: Insecticidal test on brown rice planthopper; format: in vivo; conditions: 500 ppm active ingredient, rice sprouts dipped, third-instar larvae, 25° C., 6 days
Protocol: A wettable powder prepared in accordance with Formulation Example 2 was diluted with water to a concentration of an active ingredient of 500 ppm. Rice sprouts were dipped in this solution and put in a plastic cup having a capacity of 60 mL. Ten third-instar larvae of brown rice planthopper were released in the cup, the cup was lidded and placed in a thermostatic chamber at 25° C. for 6 days, and the number of dead larvae were counted for calculation of the mortality by Equation 2. The test was carried out by one series system.

[2] = tested on: cotton aphid; assay: Insecticidal test on cotton aphid (seedling dip); format: in vivo; conditions: 500 ppm active ingredient, cucumber seedlings with larvae of cotton aphid dipped, 25° C., 3 days
Protocol: A wettable powder prepared in accordance with Formulation Example 2 was diluted with water to a concentration of an active ingredient of 500 ppm. Cucumber seedlings which had been inoculated with larvae of cotton aphid were dipped in this solution and dried in air. The treated cucumber seedlings were placed in a thermostatic chamber at 25° C. for 3 days, and the live insects were counted for calculation of the mortality by Equation 2. The test was carried out by one series system.

| SMILES | mortality [1] [%] | mortality [2] [%] |
| --- | --- | --- |
| CC(=O)Nc1cc(OC(C)C)nn1-c1cc(SCC(F)(F)F)c(C)cc1F [1-25] | ≥ 90 | ≥ 90 |
| Cc1cc(F)c(-n2nc(OCC(F)(F)C(F)(F)C(F)(F)F)cc2N)cc1SCC(F)(F)F [1-53] | ≥ 90 | ≥ 90 |
| CC(=O)Nc1cc(OCC2CC2(F)F)nn1-c1cc([S+]([O-])CC(F)(F)F)c(C)cc1F (stereo not shown) [1-60] | ≥ 90 | ≥ 90 |
| CCC(C)Oc1cc(C)n(-c2cc(SCC(F)(F)F)c(C)cc2F)n1 (stereo not shown) [1-97] | ≥ 90 | ≥ 90 |
| C=C(F)CN(C(C)=O)c1cc(OCC(F)(F)C(F)(F)F)nn1-c1cc(SCC(F)(F)F)c(C)cc1F [1-171] | ≥ 90 | ≥ 90 |
| CC(=O)Nc1cc(OCC(F)(F)C(F)(F)F)nn1-c1cc(SCC(F)(F)Cl)c(C)cc1F [1-177, 5-acetylamino-1-{2-fluoro-4-methyl-5-(2-chloro-2,2-difluoroethylthio)phenyl}-3-(2,2,3,3,3-pentafluoropropoxy)pyrazole] |  | ≥ 90 |
| CC(=O)Nc1cc(OCC(F)=CC(F)(F)F)nn1-c1cc([S+]([O-])CC(F)(F)F)c(C)cc1F (stereo not shown) [1-192] | ≥ 90 | ≥ 90 |
| COc1cc(OC(F)(F)C(F)C(F)(F)F)nn1-c1cc(SCC(F)(F)F)c(C)cc1F (stereo not shown) [1-195] | ≥ 90 | ≥ 90 |
| COc1cc(OC(F)(F)C(F)C(F)(F)F)nn1-c1cc([S+]([O-])CC(F)(F)F)c(C)cc1F (stereo not shown) [1-196] | ≥ 90 | ≥ 90 |
| COc1cc(OCC(F)(F)C(F)(F)C(F)(F)F)nn1-c1cc(SCC(F)(F)F)c(C)cc1F [1-197] | ≥ 90 | ≥ 90 |
| CON=Cc1cc(OCC(F)(F)C(F)(F)F)nn1-c1cc(SCC(F)(F)F)c(C)cc1F [1-207] | ≥ 90 | ≥ 90 |
| CON=Cc1cc(OCC(F)(F)C(F)(F)F)nn1-c1cc([S+]([O-])CC(F)(F)F)c(C)cc1F (stereo not shown) [1-208] | ≥ 90 | ≥ 90 |
| Cc1cc(F)c(-n2nc(OCCC(C)(C)C)cc2C)cc1SCC(F)(F)F [1-223] | ≥ 90 | ≥ 90 |
| Cc1cc(F)c(-n2nc(OC3CCCCC3)cc2C)cc1SCC(F)(F)F [1-235] | ≥ 90 | ≥ 90 |
| CC(=O)Nc1cc(OC(C)C(F)(F)C(F)(F)F)nn1-c1cc([S+]([O-])CC(F)(F)F)c(C)cc1F (stereo not shown) [1-280] |  | ≥ 90 |
| CC(=O)Nc1cc(OC(C)C(F)(F)C(F)(F)C(F)(F)F)nn1-c1cc([S+]([O-])CC(F)(F)F)c(C)cc1F (stereo not shown) [1-284] |  | ≥ 90 |
| Cc1cc(F)c(-n2nc(OCCC[Si](C)(C)C)cc2C)cc1[S+]([O-])CC(F)(F)F (stereo not shown) [1-300] |  | ≥ 90 |
| Cc1cc(F)c(-n2nc(OCCCC(F)(C(F)(F)F)C(F)(F)F)cc2C)cc1[S+]([O-])CC(F)(F)F (stereo not shown) [1-302] |  | ≥ 90 |
| Cc1cc(F)c(-n2nc(OCCCC(F)(F)C(F)(F)C(F)(F)C(F)(F)F)cc2C)cc1[S+]([O-])CC(F)(F)F (stereo not shown) [1-308] |  | ≥ 90 |
| CC(=O)Nc1cc(OCC(F)(F)C(F)(F)C(F)(F)C(F)F)nn1-c1cc(SCC(F)(F)F)c(C)cc1F [1-376] |  | ≥ 90 |
| CC(=O)Nc1cc(OCC(F)(F)C(F)(F)C(F)(F)C(F)F)nn1-c1cc([S+]([O-])CC(F)(F)F)c(C)cc1F (stereo not shown) [1-377] |  | ≥ 90 |

| SMILES | mortality [1] [%] | mortality [2] [%] |
| --- | --- | --- |
| CC(=O)Nc1cc(OCC(F)(F)Cl)nn1-c1cc([S+]([O-])CC(F)(F)F)c(C)cc1F (stereo not shown) [1-1372] |  | ≥ 90 |
| CC(=O)N(C)c1cc(OC(F)(F)C(F)F)nn1-c1cc(SCC(F)(F)F)c(C)cc1F [1-1392] |  | ≥ 90 |
| Cc1cc(F)c(-n2nc(OCC(F)(F)C(F)(F)F)cc2NC(=O)CCl)cc1SCC(F)(F)F [1-1449] | ≥ 90 |  |
| Cc1cc(F)c(-n2cc(Cl)c(OC(F)(F)C(F)F)n2)cc1SCC(F)(F)F [1-1451] | ≥ 90 |  |
| Cc1cc(F)c(-n2cc(Cl)c(OC(F)(F)C(F)F)n2)cc1[S+]([O-])CC(F)(F)F (stereo not shown) [1-1452] | ≥ 90 |  |
| Cc1cc(F)c(-n2nc(OCC(F)(F)F)cc2NC(=O)CCl)cc1SCC(F)(F)F [1-1453] | ≥ 90 |  |
| C=CC(=O)Nc1cc(OCC(F)(F)F)nn1-c1cc(SCC(F)(F)F)c(C)cc1F [1-1455] | ≥ 90 |  |
| Cc1cc(F)c(-n2nc(OC(F)(F)C(F)Cl)cc2C#N)cc1SCC(F)(F)F (stereo not shown) [1-1459] | ≥ 90 |  |
| Cc1cc(F)c(-n2nc(OC(F)(F)C(F)Cl)cc2C#N)cc1[S+]([O-])CC(F)(F)F (stereo not shown) [1-1460] | ≥ 90 |  |
| COc1cc(OC)n(-c2cc(SCC(F)(F)F)c(C)cc2F)n1 [1-1461] | ≥ 90 |  |
| COc1cc(OC(F)(F)C(F)Cl)nn1-c1cc(SCC(F)(F)F)c(C)cc1F (stereo not shown) [1-1465] | ≥ 90 |  |
| COc1cc(OCC(F)(F)F)nn1-c1cc(SCC(F)(F)F)c(C)cc1F [1-1467] | ≥ 90 |  |
| Cc1cc(F)c(-n2ccc(OC(F)(F)C(F)(F)F)n2)cc1[S+]([O-])CC(F)(F)F (stereo not shown) [1-1476] | ≥ 90 |  |
| Cc1cc(F)c(-n2cc(Cl)c(OCC(F)(F)C(F)(F)C(F)(F)C(F)(F)F)n2)cc1SCC(F)(F)F [1-1505] | ≥ 90 |  |
| Cc1cc(F)c(-n2nc(OCC(F)(F)C(F)(F)C(F)(F)C(F)(F)F)c(Br)c2N)cc1SCC(F)(F)F [1-1507] | ≥ 90 |  |
| Cc1cc(F)c(-n2cc(Br)c(OCC(F)(F)C(F)(F)C(F)(F)C(F)(F)F)n2)cc1[S+]([O-])CC(F)(F)F (stereo not shown) [1-1510] | ≥ 90 |  |
| Cc1cc(F)c(-n2nc(OCC(F)(F)C(F)(F)C(F)(F)C(F)(F)F)c(Cl)c2Cl)cc1SCC(F)(F)F [1-1511] | ≥ 90 |  |
| Cc1cc(F)c(-n2nc(OCC(F)(F)C(F)(F)C(F)(F)C(F)(F)F)c(Cl)c2Cl)cc1[S+]([O-])CC(F)(F)F (stereo not shown) [1-1512] | ≥ 90 |  |
| Cc1cc(F)c(-n2nc(OC(F)(F)C(F)OC(F)(F)C(F)(F)F)c(Cl)c2N)cc1SCC(F)(F)F (stereo not shown) [1-1515] | ≥ 90 |  |
| Cc1cc(F)c(-n2nc(OC(F)(F)C(F)OC(F)(F)C(F)(F)F)c(Cl)c2N)cc1[S+]([O-])CC(F)(F)F (stereo not shown) [1-1516] | ≥ 90 |  |
| C#CCNc1cc(OCC(F)(F)C(F)(F)C(F)(F)C(F)(F)C(F)(F)C(F)(F)F)nn1-c1cc(SCC(F)(F)F)c(C)cc1F [1-1525] | ≥ 90 |  |

| SMILES | mortality [1] [%] | mortality [2] [%] |
| --- | --- | --- |
| CC(=O)Nc1cc(OCCC(F)(C(F)(F)F)C(F)(F)F)nn1-c1cc(SCC(F)(F)F)c(C)cc1F [1-1527] | ≥ 90 |  |
| CC(=O)Nc1cc(OCCC(F)(C(F)(F)F)C(F)(F)F)nn1-c1cc([S+]([O-])CC(F)(F)F)c(C)cc1F (stereo not shown) [1-1528] | ≥ 90 |  |
| Cc1cc(F)c(-n2nc(OC(F)(F)C(F)C(F)(F)F)cc2C(F)F)cc1[S+]([O-])CC(F)(F)F (stereo not shown) [1-1530] | ≥ 90 |  |
| Cc1cc(F)c(-n2nc(OC(F)(F)C(F)OC(F)(F)C(F)(F)F)cc2C(F)F)cc1SCC(F)(F)F (stereo not shown) [1-1533] | ≥ 90 |  |
| Cc1cc(F)c(-n2nc(OC(F)(F)C(F)OC(F)(F)C(F)(F)F)cc2C(F)F)cc1[S+]([O-])CC(F)(F)F (stereo not shown) [1-1534] | ≥ 90 |  |
| CCOc1ccn(-c2cc([S+]([O-])CC(F)(F)F)c(C)cc2F)n1 (stereo not shown) [1-1536] | ≥ 90 |  |
| Cc1cc(F)c(-n2ccc(OC(C)C)n2)cc1SCC(F)(F)F [1-1539] | ≥ 90 |  |
| Cc1cc(F)c(-n2ccc(OC(C)C)n2)cc1[S+]([O-])CC(F)(F)F (stereo not shown) [1-1540] | ≥ 90 |  |
| Cc1cc(F)c(-n2nc(OCC(F)(F)C(F)(F)F)cc2C(F)F)cc1[S+]([O-])CC(F)(F)F (stereo not shown) [1-1542] | ≥ 90 |  |
| Cc1cc(F)c(-n2nc(OCC(F)(F)C(F)(F)C(F)(F)C(F)(F)F)cc2C(F)F)cc1SCC(F)(F)F [1-1543] | ≥ 90 |  |
| Cc1cc(F)c(-n2nc(OCC(F)(F)C(F)(F)C(F)(F)C(F)(F)F)cc2C(F)F)cc1[S+]([O-])CC(F)(F)F (stereo not shown) [1-1544] | ≥ 90 |  |
| Cc1cc(F)c(-n2cc(I)c(OC(F)(F)C(F)C(F)(F)F)n2)cc1SCC(F)(F)F (stereo not shown) [1-1545] | ≥ 90 |  |
| Cc1cc(F)c(-n2nc(OC(F)(F)C(F)C(F)(F)F)c(I)c2N)cc1SCC(F)(F)F (stereo not shown) [1-1547] | ≥ 90 |  |
| Cc1cc(F)c(-n2nc(OC(F)(F)C(F)OC(F)(F)C(F)(F)F)c(Cl)c2N=Cc2ccccc2)cc1SCC(F)(F)F (stereo not shown) [1-1549] | ≥ 90 |  |
| Cc1cc(F)c(-n2nc(OC(F)(F)C(F)OC(F)(F)C(F)(F)F)c(Cl)c2N=Cc2ccccc2)cc1[S+]([O-])CC(F)(F)F (stereo not shown) [1-1550] | ≥ 90 |  |
| Cc1cc(F)c(-n2nc(OCC(F)(F)C(F)(F)F)cc2NC=O)cc1[S+]([O-])CC(F)(F)F (stereo not shown) [1-1552] | ≥ 90 |  |
| Cc1cc(F)c(-n2ccc(OC(F)(F)C(F)Cl)n2)cc1[S+]([O-])CC(F)(F)F (stereo not shown) [1-1554] | ≥ 90 |  |
| Cc1cc(F)c(-n2nc(OCC(F)(F)C(F)(F)C(F)(F)C(F)(F)F)cc2CF)cc1SCC(F)(F)F [1-1581] | ≥ 90 |  |
| C=C(C(F)(F)F)C(F)(F)Oc1ccn(-c2cc([S+]([O-])CC(F)(F)F)c(C)cc2F)n1 (stereo not shown) [1-1598] | ≥ 90 |  |
| Cc1cc(F)c(-n2nc(OCc3ccc(OC(F)(F)F)cc3)cc2C)cc1SCC(F)(F)F [1-1599, 1-{2-fluoro-4-methyl-5-(2,2,2-trifluoroethylthio)phenyl}-5-methyl-3-{(4-trifluoromethoxy)benzyloxy}pyrazole] | ≥ 90 |  |
| Cc1cc(F)c(-n2nc(OCc3ccc(OC(F)(F)F)cc3)cc2C)cc1[S+]([O-])CC(F)(F)F (stereo not shown) [1-1600, 1-{2-fluoro-4-methyl-5-(2,2,2-trifluoroethylsulfinyl)phenyl}-5-methyl-3-{(4-trifluoromethoxy)benzyloxy}pyrazole] | ≥ 90 |  |

Reference: US8802713B2, “3-alkoxy-1-phenylpyrazole derivatives and pesticides” (Kumiai Chemical Industry Co., Ltd., priority 2007, dated 2014)
